Source: paper doi:10.1101/2025.01.31.636011
Results are given in words; binding and its absence hold for the method and conditions named. Some entries that bind do so weakly or less than the wild type. Tags and fused reporters may be left off the sequences shown.

Biological target: T1, PgBamG (PGN_1735) with a C-terminal 7His-tag (Porphyromonas gingivalis) (UniProt B2RLK9)
T1 sequence (chain, tri-acylated lipid anchor; O-glycosylation, 7 sites): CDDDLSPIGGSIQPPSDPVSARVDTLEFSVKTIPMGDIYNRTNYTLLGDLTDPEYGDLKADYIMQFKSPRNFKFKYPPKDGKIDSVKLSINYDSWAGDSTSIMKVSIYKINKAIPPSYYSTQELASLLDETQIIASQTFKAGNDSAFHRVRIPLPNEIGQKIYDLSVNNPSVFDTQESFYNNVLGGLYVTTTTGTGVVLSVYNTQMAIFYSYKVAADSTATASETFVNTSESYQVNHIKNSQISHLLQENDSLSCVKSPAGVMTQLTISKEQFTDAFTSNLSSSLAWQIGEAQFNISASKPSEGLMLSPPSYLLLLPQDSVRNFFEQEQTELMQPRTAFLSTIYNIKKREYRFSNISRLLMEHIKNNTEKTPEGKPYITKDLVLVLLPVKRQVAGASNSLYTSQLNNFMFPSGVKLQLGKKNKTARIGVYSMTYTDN
Assay: cryo-EM structure

Molecule	binding
PgBamH (PGN_0296) (from UniProt B2RHH0 26-387)	binds
PgBamJ (PGN_1188) (protein, UniProt B2RK12 24-203) CKKSDIKSLKEMKKDERKAIESFINRMGFTIKEGHEGQSEFDPDIMYHFDNDLYMQVLDKGKEPPVLNKTKINVRMEGFMFNRERDSIYVFNSLTSGGFQESVFRYIYKYNDGDIHFELIKCTTGSNLDMFVCEGVAFPMTMLGNKARVRLIVPFRIGPESLYSRGLTGYYKEVEYVFRD	binds
